The text below walks through data of the supplement of paper PMC10849652.

Chains of the proteins cited; added tags and fusions are not shown. Lines headed by an entry give the natural chain unless they say otherwise; changes in a name come on top.
UniProt Q14974, whole entry, looked up: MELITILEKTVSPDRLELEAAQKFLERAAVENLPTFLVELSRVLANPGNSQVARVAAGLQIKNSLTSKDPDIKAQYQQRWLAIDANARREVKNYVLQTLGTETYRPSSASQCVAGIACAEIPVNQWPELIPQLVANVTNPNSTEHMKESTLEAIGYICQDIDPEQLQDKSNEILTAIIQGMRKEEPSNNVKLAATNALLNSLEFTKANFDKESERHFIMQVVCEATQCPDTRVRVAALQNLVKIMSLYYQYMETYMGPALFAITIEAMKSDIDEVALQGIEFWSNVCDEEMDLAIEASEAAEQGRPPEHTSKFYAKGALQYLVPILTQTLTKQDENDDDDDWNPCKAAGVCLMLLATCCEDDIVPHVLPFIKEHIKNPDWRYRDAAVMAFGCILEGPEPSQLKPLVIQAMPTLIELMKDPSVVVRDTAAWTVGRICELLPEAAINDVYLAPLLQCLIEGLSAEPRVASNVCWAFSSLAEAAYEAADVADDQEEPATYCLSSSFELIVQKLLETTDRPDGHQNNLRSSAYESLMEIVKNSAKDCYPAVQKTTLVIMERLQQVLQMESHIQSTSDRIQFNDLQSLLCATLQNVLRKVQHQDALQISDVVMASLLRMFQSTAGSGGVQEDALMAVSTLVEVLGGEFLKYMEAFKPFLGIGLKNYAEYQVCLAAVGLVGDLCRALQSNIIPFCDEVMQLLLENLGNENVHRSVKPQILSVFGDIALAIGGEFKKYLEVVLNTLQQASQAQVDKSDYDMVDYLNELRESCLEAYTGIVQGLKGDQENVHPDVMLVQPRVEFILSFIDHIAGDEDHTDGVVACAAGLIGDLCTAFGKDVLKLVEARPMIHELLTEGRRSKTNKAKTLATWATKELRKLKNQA
UniProt Q9BY66, whole entry, looked up: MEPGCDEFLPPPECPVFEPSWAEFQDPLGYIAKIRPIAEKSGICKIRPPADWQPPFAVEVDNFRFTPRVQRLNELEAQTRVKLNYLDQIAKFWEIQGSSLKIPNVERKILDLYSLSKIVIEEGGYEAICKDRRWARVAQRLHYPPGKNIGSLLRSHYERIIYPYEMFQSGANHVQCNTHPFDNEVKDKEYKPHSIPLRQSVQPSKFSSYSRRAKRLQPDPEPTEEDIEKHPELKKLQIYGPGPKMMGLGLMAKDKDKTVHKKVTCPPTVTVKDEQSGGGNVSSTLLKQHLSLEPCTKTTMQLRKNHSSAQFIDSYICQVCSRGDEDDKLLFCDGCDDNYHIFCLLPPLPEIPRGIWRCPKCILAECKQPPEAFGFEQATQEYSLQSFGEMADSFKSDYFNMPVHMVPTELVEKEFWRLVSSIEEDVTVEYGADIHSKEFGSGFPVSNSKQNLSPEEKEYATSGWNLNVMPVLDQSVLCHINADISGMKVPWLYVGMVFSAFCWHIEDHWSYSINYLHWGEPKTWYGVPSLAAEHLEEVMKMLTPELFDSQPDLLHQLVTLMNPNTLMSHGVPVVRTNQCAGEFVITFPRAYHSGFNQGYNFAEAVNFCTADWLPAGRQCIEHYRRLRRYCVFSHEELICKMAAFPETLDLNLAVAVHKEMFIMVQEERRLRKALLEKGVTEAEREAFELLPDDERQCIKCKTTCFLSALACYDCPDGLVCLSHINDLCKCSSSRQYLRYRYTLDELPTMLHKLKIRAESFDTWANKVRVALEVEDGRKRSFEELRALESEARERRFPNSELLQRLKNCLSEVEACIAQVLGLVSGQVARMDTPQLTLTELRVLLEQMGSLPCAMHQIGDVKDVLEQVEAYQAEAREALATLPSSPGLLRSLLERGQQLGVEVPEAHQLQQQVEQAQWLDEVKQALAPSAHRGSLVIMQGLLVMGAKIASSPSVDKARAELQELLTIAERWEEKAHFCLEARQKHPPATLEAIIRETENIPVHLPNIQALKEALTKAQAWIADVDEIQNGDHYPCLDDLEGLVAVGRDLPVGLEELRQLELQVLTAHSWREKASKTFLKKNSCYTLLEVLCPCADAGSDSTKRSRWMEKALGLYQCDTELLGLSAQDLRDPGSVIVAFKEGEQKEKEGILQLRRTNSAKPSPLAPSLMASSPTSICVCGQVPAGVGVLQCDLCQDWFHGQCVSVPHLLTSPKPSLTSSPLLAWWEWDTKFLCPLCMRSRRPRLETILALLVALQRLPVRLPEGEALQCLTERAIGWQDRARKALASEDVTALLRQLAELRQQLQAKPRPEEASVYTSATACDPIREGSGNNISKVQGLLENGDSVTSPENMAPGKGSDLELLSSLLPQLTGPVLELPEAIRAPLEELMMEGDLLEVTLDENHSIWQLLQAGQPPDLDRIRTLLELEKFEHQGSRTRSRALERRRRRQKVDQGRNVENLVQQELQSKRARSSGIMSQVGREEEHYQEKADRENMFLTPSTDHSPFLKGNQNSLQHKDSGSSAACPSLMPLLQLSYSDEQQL
UniProt Q969F8, whole entry, looked up: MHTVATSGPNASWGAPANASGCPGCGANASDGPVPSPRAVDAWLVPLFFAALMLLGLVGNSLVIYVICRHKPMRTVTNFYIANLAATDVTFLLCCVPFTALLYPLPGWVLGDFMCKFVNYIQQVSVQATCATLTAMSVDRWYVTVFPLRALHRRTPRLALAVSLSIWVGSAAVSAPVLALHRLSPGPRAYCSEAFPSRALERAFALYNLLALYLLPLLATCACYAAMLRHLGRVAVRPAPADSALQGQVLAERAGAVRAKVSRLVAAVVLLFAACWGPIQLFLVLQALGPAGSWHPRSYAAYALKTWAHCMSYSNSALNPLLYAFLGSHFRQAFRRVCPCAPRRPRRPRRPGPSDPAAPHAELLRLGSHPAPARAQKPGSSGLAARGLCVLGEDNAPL
UniProt Q1ED39: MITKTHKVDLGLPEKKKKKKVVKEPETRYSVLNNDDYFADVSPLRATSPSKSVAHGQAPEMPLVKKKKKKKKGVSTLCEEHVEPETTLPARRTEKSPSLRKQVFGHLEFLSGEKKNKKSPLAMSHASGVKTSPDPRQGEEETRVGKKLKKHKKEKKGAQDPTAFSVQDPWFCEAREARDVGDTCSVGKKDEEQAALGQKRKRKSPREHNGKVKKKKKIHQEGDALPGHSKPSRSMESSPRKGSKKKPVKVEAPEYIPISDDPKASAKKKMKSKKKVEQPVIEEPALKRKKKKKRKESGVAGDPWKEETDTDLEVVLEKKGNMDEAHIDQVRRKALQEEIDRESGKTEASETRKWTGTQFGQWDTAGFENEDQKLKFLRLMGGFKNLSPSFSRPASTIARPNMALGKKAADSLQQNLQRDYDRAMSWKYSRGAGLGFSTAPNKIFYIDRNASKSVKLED
UniProt P52732: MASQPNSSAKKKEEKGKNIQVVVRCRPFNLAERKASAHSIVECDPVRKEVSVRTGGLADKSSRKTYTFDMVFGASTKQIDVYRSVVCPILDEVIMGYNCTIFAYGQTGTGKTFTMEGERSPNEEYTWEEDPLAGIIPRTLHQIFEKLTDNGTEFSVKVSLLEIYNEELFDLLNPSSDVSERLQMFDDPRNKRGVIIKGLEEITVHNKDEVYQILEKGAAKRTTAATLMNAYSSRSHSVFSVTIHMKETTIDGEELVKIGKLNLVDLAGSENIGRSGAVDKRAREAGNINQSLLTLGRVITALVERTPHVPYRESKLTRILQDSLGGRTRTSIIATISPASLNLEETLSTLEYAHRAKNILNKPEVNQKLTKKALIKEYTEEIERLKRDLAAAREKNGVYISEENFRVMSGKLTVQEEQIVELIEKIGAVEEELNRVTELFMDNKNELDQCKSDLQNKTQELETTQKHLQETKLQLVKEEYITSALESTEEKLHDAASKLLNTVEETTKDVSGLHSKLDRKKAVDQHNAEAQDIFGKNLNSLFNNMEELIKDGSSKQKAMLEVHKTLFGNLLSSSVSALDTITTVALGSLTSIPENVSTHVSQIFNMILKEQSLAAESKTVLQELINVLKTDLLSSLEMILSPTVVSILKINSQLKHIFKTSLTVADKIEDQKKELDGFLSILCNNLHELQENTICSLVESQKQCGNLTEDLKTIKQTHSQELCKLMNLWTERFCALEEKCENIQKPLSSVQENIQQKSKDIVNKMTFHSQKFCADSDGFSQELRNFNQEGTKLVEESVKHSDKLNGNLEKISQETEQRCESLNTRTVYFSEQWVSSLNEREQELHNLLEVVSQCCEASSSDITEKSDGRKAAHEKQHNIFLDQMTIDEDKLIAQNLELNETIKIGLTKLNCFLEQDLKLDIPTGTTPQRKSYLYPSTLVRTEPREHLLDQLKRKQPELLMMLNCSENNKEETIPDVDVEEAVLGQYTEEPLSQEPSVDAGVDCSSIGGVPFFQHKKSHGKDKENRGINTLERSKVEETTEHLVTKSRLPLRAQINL
UniProt O95239: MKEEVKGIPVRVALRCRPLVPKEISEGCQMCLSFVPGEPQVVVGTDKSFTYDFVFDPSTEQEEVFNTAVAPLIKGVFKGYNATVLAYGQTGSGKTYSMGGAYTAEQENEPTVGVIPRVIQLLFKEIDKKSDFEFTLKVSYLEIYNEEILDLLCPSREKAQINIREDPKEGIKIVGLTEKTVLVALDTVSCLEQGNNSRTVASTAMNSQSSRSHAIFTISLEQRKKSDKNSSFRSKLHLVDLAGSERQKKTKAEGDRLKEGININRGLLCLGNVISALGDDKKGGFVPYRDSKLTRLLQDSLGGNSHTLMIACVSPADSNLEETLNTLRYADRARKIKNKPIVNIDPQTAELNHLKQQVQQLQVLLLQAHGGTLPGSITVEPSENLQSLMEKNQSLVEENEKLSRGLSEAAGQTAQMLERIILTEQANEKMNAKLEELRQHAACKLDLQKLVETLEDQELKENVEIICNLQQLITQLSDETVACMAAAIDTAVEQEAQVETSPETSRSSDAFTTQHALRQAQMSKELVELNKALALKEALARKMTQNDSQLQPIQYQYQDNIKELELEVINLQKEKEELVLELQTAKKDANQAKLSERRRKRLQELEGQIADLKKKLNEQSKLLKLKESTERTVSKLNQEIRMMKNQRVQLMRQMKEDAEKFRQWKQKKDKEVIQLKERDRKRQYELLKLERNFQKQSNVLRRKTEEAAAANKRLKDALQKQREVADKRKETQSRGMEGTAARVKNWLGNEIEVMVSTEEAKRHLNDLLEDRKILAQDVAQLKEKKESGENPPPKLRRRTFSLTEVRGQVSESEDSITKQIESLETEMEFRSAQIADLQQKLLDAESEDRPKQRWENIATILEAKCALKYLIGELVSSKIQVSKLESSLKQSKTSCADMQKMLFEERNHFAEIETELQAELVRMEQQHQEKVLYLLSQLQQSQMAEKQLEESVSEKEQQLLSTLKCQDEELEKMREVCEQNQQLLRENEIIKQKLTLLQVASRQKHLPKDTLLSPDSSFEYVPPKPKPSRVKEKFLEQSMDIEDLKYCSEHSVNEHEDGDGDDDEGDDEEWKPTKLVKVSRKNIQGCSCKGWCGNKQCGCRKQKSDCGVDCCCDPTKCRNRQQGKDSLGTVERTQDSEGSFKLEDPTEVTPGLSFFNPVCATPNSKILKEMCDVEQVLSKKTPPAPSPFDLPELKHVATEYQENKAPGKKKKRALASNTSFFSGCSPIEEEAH
UniProt Q9H3F6: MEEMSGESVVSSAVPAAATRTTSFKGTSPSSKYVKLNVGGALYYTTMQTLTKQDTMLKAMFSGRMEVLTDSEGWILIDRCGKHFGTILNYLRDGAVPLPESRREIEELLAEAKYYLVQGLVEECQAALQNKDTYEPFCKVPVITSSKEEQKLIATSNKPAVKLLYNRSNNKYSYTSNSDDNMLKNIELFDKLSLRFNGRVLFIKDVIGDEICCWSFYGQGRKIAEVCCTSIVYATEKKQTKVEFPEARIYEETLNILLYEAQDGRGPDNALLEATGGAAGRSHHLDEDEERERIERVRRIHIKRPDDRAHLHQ
UniProt Q96EK5: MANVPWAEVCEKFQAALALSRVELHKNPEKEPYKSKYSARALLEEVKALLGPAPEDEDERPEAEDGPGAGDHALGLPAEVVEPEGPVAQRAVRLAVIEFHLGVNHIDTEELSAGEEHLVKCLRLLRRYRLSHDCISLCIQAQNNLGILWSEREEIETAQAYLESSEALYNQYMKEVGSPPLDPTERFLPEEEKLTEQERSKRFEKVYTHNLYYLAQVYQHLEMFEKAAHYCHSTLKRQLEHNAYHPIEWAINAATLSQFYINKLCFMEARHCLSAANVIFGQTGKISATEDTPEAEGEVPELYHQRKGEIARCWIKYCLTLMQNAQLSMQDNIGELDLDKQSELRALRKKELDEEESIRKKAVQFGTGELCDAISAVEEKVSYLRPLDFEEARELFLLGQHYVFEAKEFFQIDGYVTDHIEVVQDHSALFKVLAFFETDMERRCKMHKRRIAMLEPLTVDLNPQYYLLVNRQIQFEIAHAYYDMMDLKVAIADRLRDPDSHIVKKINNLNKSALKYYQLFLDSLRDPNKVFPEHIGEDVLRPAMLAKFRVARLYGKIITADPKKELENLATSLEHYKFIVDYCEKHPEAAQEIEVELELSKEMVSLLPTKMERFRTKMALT

Some of the results follow.

Compound in the experiment: CN1CCN(CCOc2cc(OC3CCOCC3)c3c(Nc4c(Cl)ccc5c4OCO5)ncnc3c2)CC1 [saracatinib]
Kind of experiment: log2 fold change, soluble protein after heating vs DMSO (PISA); higher = thermal stabilisation; K562 cells, 10 uM, 30 min; active = over 0.2 and 3.5 SD of the protein, either way, in both replicates (recomputed). The procedure, abridged: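 Thermal stability values are relative to control samples and come from duplicates. They are expressed as log2 fold changes. For measurement, K562 cells (2×10^6 cells/mL) received 10 μM compound for 30 min, and aliquots were heated for 3 min over 48°C-58°C, pooled, and extracted at 4°C in PBS with 0.5% NP-40. Soluble protein, the supernatant after 21,000xg for 90 min, was quantified by TMTpro 16plex LC-MS/MS with equalised channel sums.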
For KRAS isoform 2 (UniProt P01116), the log2 fold change is inactive: 0.039.
KPNB1 (UniProt Q14974): the log2 fold change was inactive: -0.076.
Regarding KPNA4 (UniProt O00629), the log2 fold change is inactive: 0.013.
In the case of JOSD1 (UniProt Q15040), the log2 fold change is inactive: -0.08.
In the case of KCNH2 (UniProt Q12809), the log2 fold change was inactive: -0.26.
Turning to KLF1 (UniProt Q13351), the log2 fold change is inactive: 0.075.
For KIF3B (UniProt O15066), the log2 fold change was inactive: -0.068.
KLHL42 (UniProt Q9P2K6): the log2 fold change is inactive: 0.147.
The result for KMT2E (UniProt Q8IZD2) reads inactive: 0.059; that for KDM5D isoform 3 (UniProt Q9BY66), inactive: -0.063.
As to KDF1 (UniProt Q8NAX2), the log2 fold change was inactive: 0.136.
As to KIDINS220 isoform 2 (UniProt Q9ULH0), the log2 fold change was inactive: -0.331.
As for JMJD4 (UniProt Q9H9V9), the log2 fold change was inactive: 0.022.
Consider KISS1R (UniProt Q969F8), for which the log2 fold change was inactive: -0.246.
Turning to KMT2C isoform 3 (UniProt Q8NEZ4), the log2 fold change is inactive: -0.026.
With JMJD8 (UniProt Q96S16), the log2 fold change is inactive: -0.027.
Turning to KNOP1 (UniProt Q1ED39), the log2 fold change is inactive: -0.124.
The same measure for JMJD6 isoform 3 (UniProt Q6NYC1): inactive: -0.01.
The result for JMJD7 (UniProt P0C870) reads inactive: -0.432; that for KIF11 (UniProt P52732), inactive: -0.059.
Take KIF4A (UniProt O95239): the log2 fold change was inactive: 0.054.
Regarding JAK3 (UniProt P52333), the log2 fold change was inactive: -0.03.
The same measure for KIAA0754 (UniProt O94854): inactive: 0.036; for KBTBD7 (UniProt Q8WVZ9): inactive: -0.039; for KIAA1324L (UniProt A8MWY0): inactive: 0.018.
Regarding KPTN (UniProt Q9Y664), the log2 fold change was inactive: 0.006.
KCTD10 (UniProt Q9H3F6): the log2 fold change is inactive: 0.221.
Turning to KLC2 (UniProt Q9H0B6), the log2 fold change is inactive: -0.107.
In the case of KDM3B (UniProt Q7LBC6), the log2 fold change was inactive: 0.01.
The result for KNTC1 (UniProt P50748) reads inactive: -0.034; that for KDELR1 (UniProt P24390), inactive: 0.195.
The same measure for KCT2 (UniProt Q8NC54): inactive: 0.027.
In the case of KIF21A isoform 4 (UniProt Q7Z4S6), the log2 fold change was inactive: 0.001.
The same measure for KDM1A isoform 2 (UniProt O60341): inactive: -0.061.
As for KDM1B (UniProt Q8NB78), the log2 fold change is inactive: -0.22.
As to KIAA1755 (UniProt Q5JYT7), the log2 fold change was inactive: -0.057.
Regarding KCNK5 (UniProt O95279), the log2 fold change is inactive: -0.444.
On to KLHL18 (UniProt O94889), for which the log2 fold change is inactive: -0.033.
The result for KIFBP (UniProt Q96EK5) reads inactive: -0.039.
